Experimental data: PubChem BioAssay AID1259308 (NCATS, 2017)

Test: 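Knock-downs that increase output of a recombinant reporter protein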 (primary screen)
Cell system: human HEK293 embryonic kidney cells stably expressing firefly luciferase (HEK-CMV-Luc2-Hygro)
Reagent: single siRNA against human genes, 0.8 pmol siRNA per well
Timing: 72 h
Measurement: 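Reporter luminescence and viable-cell signal on separate replicate plates, given as percent of non-targeting control and median/MAD z-scores, plus per-cell luciferase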
Scale: total luciferase, z-score: higher = more reporter protein produced
Hit rule: 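Active when the median/MAD z-score for overall luciferase is greater than 3; a gene was taken forward for validation with new siRNAs if at least two of its three siRNAs passed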
Calls: active = raised luciferase; inactive = no rise
The deposit covers about 59,000 reagents; below is a random part of them. Of all reagents, about 1,510 (2.6%) got an active call. 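Calls use total luciferase alone and ignore viability, so some active siRNAs may act by altering cell number.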 Unmarked entries are inactive. The numbers tell different reagents against one gene apart. Not all columns of the deposit are shown. No sequences are given here.

With CCDC102B #1, what was measured?
total luciferase, z-score: 1.29

Which result is listed for CCDC102B #2?
total luciferase, z-score: 0.615

For CCDC102B #3, what was measured?
total luciferase, z-score: 0.702

With LIN28B #1, how do the results read?
total luciferase, z-score: 1.7

What is on record for LIN28B #2?
total luciferase, z-score: -2.2

For LIN28B #3, how do the results read?
total luciferase, z-score: -0.538

With OR5AK2 #1, what does the deposit list?
total luciferase, z-score: 1.78

With OR5AK2 #2, what was measured?
total luciferase, z-score: -0.253

Which result is listed for OR5AK2 #3?
total luciferase, z-score: -0.662

How did the screen score DOK6 #1?
total luciferase, z-score: 1.24

With DOK6 #2, how do the results read?
total luciferase, z-score: -0.487

For DOK6 #3, what does the deposit list?
total luciferase, z-score: 2.26

For NPAT #1, what does the deposit list?
total luciferase, z-score: 2.93

Which result is listed for NPAT #2?
total luciferase, z-score: 3.7 (active)

What is on record for NPAT #3?
total luciferase, z-score: 0.53

With CACNA1B #1, what does the deposit list?
total luciferase, z-score: -0.733

What is on record for CACNA1B #2?
total luciferase, z-score: 0.252

What is on record for CACNA1B #3?
total luciferase, z-score: -0.25

What is on record for FLYWCH1 #1?
total luciferase, z-score: 0.025

What did the screen give for FLYWCH1 #2?
total luciferase, z-score: 5.6 (active)

Which result is listed for FLYWCH1 #3?
total luciferase, z-score: 0.556

Reprinted from the entries so far, 5 entries:
DOK6 #3 → total luciferase, z-score: 2.26
NPAT #1 → total luciferase, z-score: 2.93
NPAT #2 → total luciferase, z-score: 3.7 (active)
NPAT #3 → total luciferase, z-score: 0.53
CACNA1B #1 → total luciferase, z-score: -0.733

Continued.
How did the screen score TSSK1B #1?
total luciferase, z-score: -0.37

For TSSK1B #2, what does the deposit list?
total luciferase, z-score: 1.82

What is on record for TSSK1B #3?
total luciferase, z-score: 0.0731

For NUTM2A-AS1 #1, how do the results read?
total luciferase, z-score: 4.48 (active)

What did the screen give for NUTM2A-AS1 #2?
total luciferase, z-score: -2.36

How did the screen score NUTM2A-AS1 #3?
total luciferase, z-score: 1.75

What is on record for GPX8 #1?
total luciferase, z-score: -2.22

What is on record for GPX8 #2?
total luciferase, z-score: 1.12

For GPX8 #3, how do the results read?
total luciferase, z-score: -1.66

With GPR35 #1, how do the results read?
total luciferase, z-score: 1.95

Which result is listed for GPR35 #2?
total luciferase, z-score: -1.89

With GPR35 #3, what does the deposit list?
total luciferase, z-score: -0.502

Which result is listed for CLNK #1?
total luciferase, z-score: -1.67

How did the screen score CLNK #2?
total luciferase, z-score: -0.17

With CLNK #3, how do the results read?
total luciferase, z-score: 0.0322

How did the screen score LRP6 #1?
total luciferase, z-score: -0.0175

What is on record for LRP6 #2?
total luciferase, z-score: -1.77

How did the screen score LRP6 #3?
total luciferase, z-score: -0.632

With STAMBPL1 #1, what was measured?
total luciferase, z-score: -0.519

For STAMBPL1 #2, what was measured?
total luciferase, z-score: 1.28

For STAMBPL1 #3, how do the results read?
total luciferase, z-score: 0.0418
